Measured values published in paper PMC8550248.
These are yes or no findings as the source states them, for the method shown. Binding seen in cells or lysates may run through a third protein.

Columns and labels:
[1] = biological target: endogenous wild-type p53 (human (endogenous in HCT116, U2OS, A375)) (UniProt P04637); assay: co-IP; endogenous proteins, HCT116 lysate; IP with anti-p53 monoclonal antibody DO-1, IgG control; Western blot
[2] = biological target: endogenous wild-type p53 (human (endogenous in HCT116, U2OS, A375)) (UniProt P04637); assay: co-IP; endogenous proteins, U2OS lysate; IP with anti-p53 antibody, IgG control; Western blot
[3] = biological target: endogenous wild-type p53 (human (endogenous in HCT116, U2OS, A375)) (UniProt P04637); assay: co-IP; endogenous proteins, A375 lysate; IP with anti-p53 antibody, IgG control; Western blot

binding [1]: no binding | binding [2]: no binding | binding [3]: no binding
B1: DiGeorge syndrome critical region 8 (DGCR8) (endogenous) (protein, UniProt Q8WYQ5 1-773)
chain: METDESPSPLPCGPAGEAVMESRARPFQALPREQSPPPPLQTSSGAEVMDVGSGGDGQSELPAEDPFNFYGASLLSKGSFSKGRLLIDPNCSGHSPRTARHAPAVRKFSPDLKLLKDVKISVSFTESCRSKDRKVLYTGAERDVRAECGLLLSPVSGDVHACPFGGSVGDGVGIGGESADKKDEENELDQEKRVEYAVLDELEDFTDNLELDEEGAGGFTAKAIVQRDRVDEEALNFPYEDDFDNDVDALLEEGLCAPKKRRTEEKYGGDSDHPSDGETSVQPMMTKIKTVLKSRGRPPTEPLPDGWIMTFHNSGVPVYLHRESRVVTWSRPYFLGTGSIRKHDPPLSSIPCLHYKKMKDNEEREQSSDLTPSGDVSPVKPLSRSAELEFPLDEPDSMGADPGPPDEKDPLGAEAAPGALGQVKAKVEVCKDESVDLEEFRSYLEKRFDFEQVTVKKFRTWAERRQFNREMKRKQAESERPILPANQKLITLSVQDAPTKKEFVINPNGKSEVCILHEYMQRVLKVRPVYNFFECENPSEPFGASVTIDGVTYGSGTASSKKLAKNKAARATLEILIPDFVKQTSEEKPKDSEELEYFNHISIEDSRVYELTSKAGLLSPYQILHECLKRNHGMGDTSIKFEVVPGKNQKSEYVMACGKHTVRGWCKNKRVGKQLASQKILQLLHPHVKNWGSLLRMYGRESSKMVKQETSDKSVIELQQYAKKNKPNLHILSKLQEEMKRLAEEREETRKKPKMSIVASAQPGGEPLCTVDV
